From PMC5465582
Results are given in words; binding and its absence hold for the method and conditions named. Binding seen in cells or lysates may run through a third protein. Some results given as binding are weak or reduced against the parent protein; the word gives no strength. For part of these data: Tags and fused reporters may be left off the sequences shown.

Sequences of proteins named here, by UniProt entry; tags and fusion partners are left off.
UniProt Q96GD4: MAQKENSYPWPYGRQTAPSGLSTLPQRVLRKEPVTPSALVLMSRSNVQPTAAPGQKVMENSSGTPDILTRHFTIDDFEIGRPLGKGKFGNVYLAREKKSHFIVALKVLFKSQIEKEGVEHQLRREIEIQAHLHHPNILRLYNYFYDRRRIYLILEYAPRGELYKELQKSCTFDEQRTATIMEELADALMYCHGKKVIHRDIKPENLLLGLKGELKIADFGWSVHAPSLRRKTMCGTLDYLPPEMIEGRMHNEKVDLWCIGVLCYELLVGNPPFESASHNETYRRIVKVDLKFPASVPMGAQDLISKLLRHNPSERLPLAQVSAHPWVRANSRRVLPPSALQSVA

What was measured:
AURKA-Flag = target: T1, AURKA-Flag (UniProt O14965); assay: co-IP; AURKA-Flag and AURKB-GFP co-transfected in U251 cells, lysed 48 h after transfection
T1 sequence: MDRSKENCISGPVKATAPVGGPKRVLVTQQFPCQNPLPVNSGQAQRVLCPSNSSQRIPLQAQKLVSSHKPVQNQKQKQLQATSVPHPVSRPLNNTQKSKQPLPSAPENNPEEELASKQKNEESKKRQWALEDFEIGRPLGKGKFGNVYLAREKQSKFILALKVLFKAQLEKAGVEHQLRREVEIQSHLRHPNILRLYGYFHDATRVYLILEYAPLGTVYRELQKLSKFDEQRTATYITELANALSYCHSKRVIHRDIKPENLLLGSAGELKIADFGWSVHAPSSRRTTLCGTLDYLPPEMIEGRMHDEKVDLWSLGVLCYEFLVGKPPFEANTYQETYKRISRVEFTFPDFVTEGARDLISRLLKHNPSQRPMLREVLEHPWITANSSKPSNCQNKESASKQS

[1] = target: T2, aurora kinase A (human (endogenous in U251)) (UniProt O14965); assay: co-IP; endogenous proteins, U251 whole cell lysate in GLB+ buffer (10 mM Tris-HCl pH 7.5, 300 mM NaCl, 10 mM EDTA, 0.5% Triton X-100); 2 ug antibody with 500 ug lysate 12 h at 4 C, Protein G beads; also in cells transfected with pEGFP-C1-SIX3 (interaction not affected, less AURKB precipitated by the AURKA antibody)
T2 sequence: T1 sequence

[2] = target: T2, aurora kinase A (human (endogenous in U251)); assay: co-IP; endogenous proteins, nuclear and cytoplasmic fractions of U251 cells (Nuclear Extract Kit); IP and Western blotting

Substance | binding (AURKA-Flag) | binding [1] | binding [2]
AURKB-GFP (from UniProt Q96GD4 1-344) | binds | – | –
aurora kinase B (from UniProt Q96GD4 1-344) | – | binds | binds
